Experimental findings from article PMC3508985 are described below.

By UniProt entry, the sequences of proteins in these tests, tags left out.
UniProt P01106: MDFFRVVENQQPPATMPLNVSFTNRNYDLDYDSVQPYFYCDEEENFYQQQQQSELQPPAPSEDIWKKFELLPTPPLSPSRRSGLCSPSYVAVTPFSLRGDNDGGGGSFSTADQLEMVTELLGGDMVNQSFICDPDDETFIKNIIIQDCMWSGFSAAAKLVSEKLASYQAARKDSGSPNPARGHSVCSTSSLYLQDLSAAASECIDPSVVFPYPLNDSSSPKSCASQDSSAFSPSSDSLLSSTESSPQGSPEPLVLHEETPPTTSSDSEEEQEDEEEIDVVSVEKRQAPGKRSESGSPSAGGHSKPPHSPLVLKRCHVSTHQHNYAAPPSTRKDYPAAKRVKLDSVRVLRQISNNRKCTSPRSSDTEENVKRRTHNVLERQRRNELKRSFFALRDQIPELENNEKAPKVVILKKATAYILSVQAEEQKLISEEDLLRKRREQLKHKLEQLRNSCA

In test [1] the target is YC-MYC (UniProt P01106). As to the kind of experiment: split reporter; split-YFP BiFC in living HeLa cells, transient transfection with DsRed as transfection control; after 2 days 1.5 hours at 30°C for maturation; confocal microscopy.
Test [2] addresses Myc-p62 (UniProt Q13501). The test can be described thus: co-IP; HA-ARTD10 and Myc-p62 co-expressed in HEK293; cells treated with 0.5 mM dimethyl 3,3′-dithiobispropionimidate in PBS for 30 minutes before lysis (20 mM Tris–HCl pH 7.5, 50 mM NaCl, 0.5% NP-40, 0.5% DOC, 0.5% SDS); p62 immunoprecipitated, Western blot. In general terms: In western blotting, separated proteins are transferred to a membrane and probed.

These are yes or no findings as the source states them, for the method shown. Binding seen in cells or lysates may run through a third protein. Some binding calls cover weakened binding; strength is not graded here. For some assays here: Sequences can lack the tags named with a protein.

B1: YN-ARTD10 (enzyme, UniProt Q53GL7 1-1025)
chain: MVAMAEAEAGVAVEVRGLPPAVPDELLTLYFENRRRSGGGPVLSWQRLGCGGVLTFREPADAERVLAQADHELHGAQLSLRPAPPRAPARLLLQGLPPGTTPQRLEQHVQALLRASGLPVQPCCALASPRPDRALVQLPKPLSEADVRVLEEQAQNLGLEGTLVSLARVPQARAVRVVGDGASVDLLLLELYLENERRSGGGPLEDLQRLPGPLGTVASFQQWQVAERVLQQEHRLQGSELSLVPHYDILEPEELAENTSGGDHPSTQGPRATKHALLRTGGLVTALQGAGTVTMGSGEEPGQSGASLRTGPMVQGRGIMTTGSGQEPGQSGTSLRTGPMGSLGQAEQVSSMPMGSLEHEGLVSLRPVGLQEQEGPMSLGPVGSAGPVETSKGLLGQEGLVEIAMDSPEQEGLVGPMEITMGSLEKAGPVSPGCVKLAGQEGLVEMVLLMEPGAMRFLQLYHEDLLAGLGDVALLPLEGPDMTGFRLCGAQASCQAAEEFLRSLLGSISCHVLCLEHPGSARFLLGPEGQHLLQGLEAQFQCVFGTERLATATLDTGLEEVDPTEALPVLPGNAHTLWTPDSTGGDQEDVSLEEVRELLATLEGLDLDGEDWLPRELEEEGPQEQPEEEVTPGHEEEEPVAPSTVAPRWLEEEAALQLALHRSLEPQGQVAEQEEAAALRQALTLSLLEQPPLEAEEPPDGGTDGKAQLVVHSAFEQDVEELDRALRAALEVHVQEETVGPWRRTLPAELRARLERCHGVSVALRGDCTILRGFGAHPARAARHLVALLAGPWDQSLAFPLAASGPTLAGQTLKGPWNNLERLAENTGEFQEVVRAFYDTLDAARSSIRVVRVERVSHPLLQQQYELYRERLLQRCERRPVEQVLYHGTTAPAVPDICAHGFNRSFCGRNATVYGKGVYFARRASLSVQDRYSPPNADGHKAVFVARVLTGDYGQGRRGLRAPPLRGPGHVLLRYDSAVDCICQPSIFVIFHDTQALPTHLITCEHVPRASPDDPSGLPGRSPDT
With B1, in test [1], the binding entry was “binds”.

B2: HA-ARTD10 (enzyme, UniProt Q53GL7 1-1025)
chain: MVAMAEAEAGVAVEVRGLPPAVPDELLTLYFENRRRSGGGPVLSWQRLGCGGVLTFREPADAERVLAQADHELHGAQLSLRPAPPRAPARLLLQGLPPGTTPQRLEQHVQALLRASGLPVQPCCALASPRPDRALVQLPKPLSEADVRVLEEQAQNLGLEGTLVSLARVPQARAVRVVGDGASVDLLLLELYLENERRSGGGPLEDLQRLPGPLGTVASFQQWQVAERVLQQEHRLQGSELSLVPHYDILEPEELAENTSGGDHPSTQGPRATKHALLRTGGLVTALQGAGTVTMGSGEEPGQSGASLRTGPMVQGRGIMTTGSGQEPGQSGTSLRTGPMGSLGQAEQVSSMPMGSLEHEGLVSLRPVGLQEQEGPMSLGPVGSAGPVETSKGLLGQEGLVEIAMDSPEQEGLVGPMEITMGSLEKAGPVSPGCVKLAGQEGLVEMVLLMEPGAMRFLQLYHEDLLAGLGDVALLPLEGPDMTGFRLCGAQASCQAAEEFLRSLLGSISCHVLCLEHPGSARFLLGPEGQHLLQGLEAQFQCVFGTERLATATLDTGLEEVDPTEALPVLPGNAHTLWTPDSTGGDQEDVSLEEVRELLATLEGLDLDGEDWLPRELEEEGPQEQPEEEVTPGHEEEEPVAPSTVAPRWLEEEAALQLALHRSLEPQGQVAEQEEAAALRQALTLSLLEQPPLEAEEPPDGGTDGKAQLVVHSAFEQDVEELDRALRAALEVHVQEETVGPWRRTLPAELRARLERCHGVSVALRGDCTILRGFGAHPARAARHLVALLAGPWDQSLAFPLAASGPTLAGQTLKGPWNNLERLAENTGEFQEVVRAFYDTLDAARSSIRVVRVERVSHPLLQQQYELYRERLLQRCERRPVEQVLYHGTTAPAVPDICAHGFNRSFCGRNATVYGKGVYFARRASLSVQDRYSPPNADGHKAVFVARVLTGDYGQGRRGLRAPPLRGPGHVLLRYDSAVDCICQPSIFVIFHDTQALPTHLITCEHVPRASPDDPSGLPGRSPDT
In the case of B2, the binding result in test [2] was “binds weakly”.
